Measurements reported in patent US20250049930A1 (CEDARS-SINAI MEDICAL CENTER, priority 2022, published 2025).

Assay: peptide made by a vendor (peptide synthesis; Fmoc-Met-Wang resin; HCTU/DIEA)
Settings: conjugation step

**Q.** For Pomalidomide-PEG4-RDFQSFRKMWPFFAM, which “final purity (method not given)” value is on record?
**A.** ≥98%
